Reference: paper PMC12012799
Results are given in words; binding and its absence hold for the method and conditions named. A result given as binding can be weak or reduced; the word gives no strength. Sequences can lack the tags named with a protein.

Target: full-length GST-TPXL3 (TPX2-LIKE 3) (Arabidopsis thaliana)
Test: pull-down; GST-fused TPXL3 or TPXL3 truncations and His-fused AUR1 mixed with glutathione beads, 4 °C for 2 h; beads washed 5 times; eluted by boiling in SDS loading buffer, SDS-PAGE; both purified

B1: 6xHis-AUR1 (Aurora 1, an α Aurora kinase of Arabidopsis thaliana) (enzyme, UniProt Q9M077 1-294)
chain: MAIPTETQHQEKEASDASAAAAQKRWTLSDFDIGKPLGRGKFGHVYLAREKRSNHVVALKVLFKSQLQQSQVEHQLRREVEIQSHLRHPNILRLYGYFYDQKRVYLILEYAARGELYKDLQKCKYFSERRAATYVASLARALIYCHGKHVIHRDIKPENLLIGAQGELKIADFGWSVHTFNRRRTMCGTLDYLPPEMVESVEHDASVDIWSLGILCYEFLYGVPPFEAMEHSDTYRRIVQVDLKFPPKPIISASAKDLISQMLVKESSQRLPLHKLLEHPWIVQNADPSGIYRV
Q: How did the binding turn out when B1 was run?
A: binds
